# Reference: article PMC8113555
# Results are given in words; binding and its absence hold for the method and conditions named. Binding seen in cells or lysates may run through a third protein. Here binding means that the protein was enriched with, or labelled near, the bait; the list need not be complete.
# B1: POT-1 (protein, UniProt P42001 1-400)
# chain: MQYTYQHIQDLVPGPTPQNFYGKIIFIKKKINQIVVLIKDETQSIYLRVIPKEDQELEFQLRQVVRVHRCKIQSILNSKEGIAQIGLFGCHLIAWSQSGKVDNPVIISSRSWTKSDEDSERLQTLRKLGKSRRKSGRKTSVDTMANKLIERREAMFADTFIKSLFNKIALSRKEHLSRNARELFYHRPGDIVETQNLLEIDDSWFNDENSEQFVQYVLNCTTCHVEYNHVEYAQNNIPTNCRFCQEAMESFHAAFRIRISIETYGVFLTIPLELIKTELDICEDWDSESNIVEEEEKVTRFKKNIQEKVRDASIVHIKGISSLLLIIMLNINSISLVNNITENKRILLQKSNVPSSLQLKILITPFVIVVVRFFGITWIYSGSSCIEEVLNLIDNCSRRR
# Biological target: TEBP-2::GFP (Telomere-Binding Protein-2, T12E12.3) (C. elegans) (UniProt Q22429)
# Assay: affinity purification with mass spectrometry; IP of TEBP-2::GFP with GFP-trap magnetic agarose beads from embryo and young adult extracts, quadruplicates, quantitative MS; wash buffer 10 mM Tris/HCl pH 7.5, 150 mM NaCl, 0.5 mM EDTA; 4 °C; also with Sm nuclease
binder,measurement,value
B1,binding,binds
